Test results published in publication PMC6762210.
Results are given in words; binding and its absence hold for the method and conditions named. Binding seen in cells or lysates may run through a third protein. These calls come from enrichment with a bait or labelling near it, and not all partners need be listed. For some of these results: Tags and fused reporters may be left off the sequences shown.

B1: SreA (iron responsive transcription factor) (protein, UniProt Q4WV91 1-546)
chain: MLASVPQMDSVRSLPRNHDVVARHASAEDLDAAQQLISSAQAGREHTTDRHRDEKVTAPVRHQMKTSMNGQRWPEQQRTAPPAEKTSTSPKAQKDTSFLGHSCSNCGTKSTPLWRRSPTGAMICNACGLYLKARNVARPTKRNRMEPGSEAGGQQTGHGIAQSESASQGHCQSNSGGGSCPGGGNCNGTGGAEGCDGCPAYNNRVYKSAARGTVPIHSWRATNSGSDRPLAETENDAGKNGATVEGGNMLVSCQNCGTTVTPLWRRDENGHPICNACGLYYKLHGCYRPTTMKKSIIKRRKRVVPALRDQSPSGATYSSNGSSASPEASPAVLAHSHDDHYRYLSSDPTLQANHQRHYAVAPPPVDFTHFSATGSLSLPHHPPPPRLLEPERLSAPSHSPIPQFGRRSISPSTSGSAKKRTLAETTSSTDTASVPTTLESGSNQLPPIISTANPSPPGRLSSISTLLNHSGPHDESRLDPSLAALSRQQQHHKATPLPPHPPSQPLPGVSELESLKEDRRAKLQREAEEMREMLRAKERELAELGA
B2: CmtA (putative copper metallothionein) (protein, UniProt A4DA78 1-111)
chain: MVHPSSTCCKTSGDGSCVCAAQAKCSCGKENALHCTCSRSAIENTISGPRCSCRARPAGQCTCERAAAENHPVTGDACPCGKRPSTSCTCEKVSAVDAAAEAIETDFTTRA
B3: Dre2 (CIA machinery) (protein, UniProt B0XPZ4 1-300)
chain: MAKQTLLLSPPSLSSQPGKLNETLQSYNRNATDLQMLDRLALGLASLPDSAYSSIVILAGGDNSFSESLKLINRQIFNQIIGSLRRGGYIYGQDAVSGIAFDHNEAILAGLIHVGNGKYQKPDIKEMQAVPLRLGRKNDHLAGAPSLQESAAEHPCPPETMISASTMNSNEASDDELINEDNLLDDSELSAPIIQRGPAPECRPKAGKRRRACKDCTCGLAQKLQEEDAVKRADADEQLDAMRLLHDDLAEVDFTVQGKVGSCGNCSLGDAFRCEGCPFIGLPAFQPGEEVRLLNNDVQL

Columns and labels:
[1] = molecular target: T1, GrxD^Venus (full-length A. fumigatus monothiol glutaredoxin GrxD, C-terminally tagged with Venus) (A. fumigatus) (UniProt Q4X024); assay: affinity purification with mass spectrometry; GFP-Trap agarose beads on mycelial crude extracts of A. fumigatus PxylP:grxD^venus or PxylP:grxD^venusΔtrx grown at -Fe, 0.03 mM Fe or 5 mM Fe (22 h, 37°C, xylose-induced); wt extract as control; 4°C, 1 h; washes with up to 500 mM NaCl; nLC-MS/MS with label-free quantification
T1 sequence: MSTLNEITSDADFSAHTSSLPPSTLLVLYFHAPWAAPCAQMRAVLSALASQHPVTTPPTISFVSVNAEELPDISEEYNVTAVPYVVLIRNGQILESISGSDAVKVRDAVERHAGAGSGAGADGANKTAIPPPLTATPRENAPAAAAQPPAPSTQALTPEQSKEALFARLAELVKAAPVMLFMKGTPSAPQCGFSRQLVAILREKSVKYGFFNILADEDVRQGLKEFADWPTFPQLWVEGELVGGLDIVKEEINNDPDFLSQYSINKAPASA

[2] = molecular target: GrxD^VenusΔTrx (GrxD lacking its Trx domain, C-terminally tagged with Venus) (A. fumigatus); assay: as above

Binder	binding [1]	binding [2]
B1	binds	
B2	binds	binds
B3	binds	
